Structures can show the parent of a compound that is named as a salt.
Experiment: Plasma pharmacokinetics in satellite animals (LC-MS/MS), 60 min after i.m. dose
Conditions: cynomolgus monkey, in vivo, nM total compound in plasma from satellite animals
Experimental: For all compounds, plasma pharmacokinetic studies were conducted in a separate cohort of cynomolgus monkeys (N = 2–3 subjects per dose) before beginning vsPAL testing to help guide dose selection. Blood samples were obtained with the animals awake and sitting in a primate chair.
Plasma concentrations of test compounds were determined using LC-MS/MS assays. In brief, 50 μL plasma and sample containing compounds was extracted by protein precipitation method with 150 μL acetonitrile containing an internal standard. A 5 μL sample of supernatant was injected into the LC-MS/MS system. Analytes were separated by reversed phase chromatography and detection of each analyte was achieved through selected reaction monitoring mode of mass spectrometry. Samples were quantified by calculated peak area ratio of analyte and internal standard against a calibration curve.

Work on CN1[C@@H]2C[C@@H](OC(=O)[C@H](CO)c3ccccc3)C[C@H]1[C@@H]1O[C@@H]12 [Scopolamine, Scopolamine HCl] yielded a concentration at 60 min (0.003 mg/kg, Scopolamine 0.003 mg/kg i.m., individual subjects) of 2 nM, a concentration at 60 min (0.003 mg/kg, Scopolamine 0.003 mg/kg i.m., mean) of 2.8 nM and a concentration at 60 min (0.0056 mg/kg, Scopolamine 0.0056 mg/kg i.m., individual subjects) of 3.4 nM. The concentration at 60 min (0.0056 mg/kg, Scopolamine 0.0056 mg/kg i.m., mean) was 2.9 nM and the concentration at 60 min (0.01 mg/kg, Scopolamine 0.010 mg/kg i.m., mean) was 12 nM.

Reference: publication PMC5736175, “Nicotinic alpha 7 receptor agonists EVP-6124 and BMS-933043, attenuate scopolamine-induced deficits in visuo-spatial paired associates learning” (PLoS ONE, 2017)
